Experimental data published in the supplement of paper PMC4604168 (melanoma cell lines).
The other results are listed elsewhere or left out. Repeats are few or missing, and single values can be far off.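 Cells were imaged in 1,536-well plates, and nuclei stained with an antibody against cleaved PARP were counted against all DNA-stained nuclei to give the apoptosis fraction. Screening doses were chosen to leave most cells alive, and resting and induced cleaved-PARP levels differ strongly between cell lines.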

Experiments:
Assay in all cases: cleaved PARP positive nuclei fraction relative to DMSO control; melanoma cells; higher = more apoptosis
Conditions in all cases: library dose: low library concentration; 72 h
[1] = system: 501Mel
[2] = system: A101D
[3] = system: A2058
[4] = system: A375
[5] = system: C32
[6] = system: CBRC008 (line from a melanoma biopsy)
[7] = system: CBRC014 (line from a melanoma biopsy)
[8] = system: CBRC016 (line from a melanoma biopsy)
[9] = system: CBRC017 (line from a melanoma biopsy)
[10] = system: CBRC034 (line from a melanoma biopsy)
[11] = system: COLO792
[12] = system: COLO800
[13] = system: COLO829
[14] = system: G361
[15] = system: IPC-298
[16] = system: IST-MEL1
[17] = system: LB2518-MEL
[18] = system: LOXIMVI
[19] = system: MEL-HO

SMILES | cleaved PARP positive nuclei fraction [1] [%] | cleaved PARP positive nuclei fraction [2] [%] | cleaved PARP positive nuclei fraction [3] [%] | cleaved PARP positive nuclei fraction [4] [%] | cleaved PARP positive nuclei fraction [5] [%] | cleaved PARP positive nuclei fraction [6] [%] | cleaved PARP positive nuclei fraction [7] [%] | cleaved PARP positive nuclei fraction [8] [%] | cleaved PARP positive nuclei fraction [9] [%] | cleaved PARP positive nuclei fraction [10] [%] | cleaved PARP positive nuclei fraction [11] [%] | cleaved PARP positive nuclei fraction [12] [%] | cleaved PARP positive nuclei fraction [13] [%] | cleaved PARP positive nuclei fraction [14] [%] | cleaved PARP positive nuclei fraction [15] [%] | cleaved PARP positive nuclei fraction [16] [%] | cleaved PARP positive nuclei fraction [17] [%] | cleaved PARP positive nuclei fraction [18] [%] | cleaved PARP positive nuclei fraction [19] [%]
CCCS(=O)(=O)Nc1ccc(F)c(C(=O)c2c[nH]c3ncc(Cl)cc23)c1F + Cc1nc(Nc2ncc(C(=O)Nc3c(C)cccc3Cl)s2)cc(N2CCN(CCO)CC2)n1 [dasatanib] (first compound 0.08 µM, partner dose 0.004 µM) | 69.3 | 52 | 196 | 293 | 78.3 | 172 | 137 | 109 | 119 | 128 | 135 | 70.3 | 109 | 246 | 106 | 97.8 | 122 | 128 | 159
CNC(=O)c1cc(Oc2ccc(NC(=O)Nc3ccc(Cl)c(C(F)(F)F)c3)cc2)ccn1 [sorafenib] + O=C(O)c1ccc2c(c1)nc(Nc1cccc(Cl)c1)c1ccncc12 [CX4945] (first compound 0.4 µM, partner dose 0.4 µM) | 58.8 | 84.5 | 188 | 55.6 | 95.6 | 235 | 114 | 68.4 | 133 | 220 | 27.2 | 47 | 97.2 | 85.8 | 89.7 | 53.1 | 141 | 51.6 | 149
Nc1ccn([C@@H]2O[C@H](CO)[C@@H](O)C2(F)F)c(=O)n1 [gemcitabine] + Clc1ccc(Nc2nnc(Cc3ccncc3)c3ccccc23)cc1 [vatalanib] (first compound 0.0004 µM, partner dose 2 µM) | 61 | 59.8 | 245 | 66.5 | 86.1 | 61.7 | 181 | 143 | 127 | 47.5 | 197 | 131 | 138 | 183 | 59.7 | 220 | 368 | 65.6 | 159
CO[C@H]1C[C@@H]2CC[C@@H](C)[C@@](O)(O2)C(=O)C(=O)N2CCCC[C@H]2C(=O)O[C@H]([C@H](C)C[C@@H]2CC[C@@H](OCCO)[C@H](OC)C2)CC(=O)[C@H](C)/C=C(\C)[C@@H](O)[C@@H](OC)C(=O)[C@H](C)C[C@H](C)/C=C/C=C/C=C/1C [everolimus] + Nc1ncn([C@H]2C[C@H](O)[C@@H](CO)O2)c(=O)n1 [decitabine] (first compound 0.02 µM, partner dose 0.1 µM) | 232 | 98.4 | 82.5 | 477 | 135 | 124 | 124 | 92.2 | 108 | 38.9 | 180 | 140 | 113 | 185 | 101 | 326 | 66.5 | 118 | 693
CC(C)C[C@H](NC(=O)[C@H](Cc1ccccc1)NC(=O)c1cnccn1)B(O)O [Bortezomib] + COCC[n+]1c2c(n(Cc3cnccn3)c1C)C(=O)c1ccccc1C2=O [YM155] (first compound 0.001 µM, partner dose 0.0004 µM) | 170 | 191 | 89.4 | 247 | 248 | 1460 | 221 | 219 | 200 | 67.2 | 97.4 | 129 | 82.1 | 1770 | 99.2 | 116 | 720 | 87 | 130
CO[C@H]1C[C@@H]2CC[C@@H](C)[C@@](O)(O2)C(=O)C(=O)N2CCCC[C@H]2C(=O)O[C@H]([C@H](C)C[C@@H]2CC[C@@H](OCCO)[C@H](OC)C2)CC(=O)[C@H](C)/C=C(\C)[C@@H](O)[C@@H](OC)C(=O)[C@H](C)C[C@H](C)/C=C/C=C/C=C/1C [everolimus] + C=C(c1ccc(C(=O)O)cc1)c1cc2c(cc1C)C(C)(C)CCC2(C)C [Bexarotene] (first compound 0.02 µM, partner dose 2 µM) | 729 | 39.3 | 174 | 1500 | 85.9 | 118 | 97.8 | 106 | 98 | 97.5 | 235 | 78.2 | 113 | 229 | 118 | 147 | 119 | 146 | 188
CN1CCN(c2ccc3nc(-c4c(N)c5c(F)cccc5[nH]c4=O)[nH]c3c2)CC1 [Dovitinib] + CS(=O)(=O)CCNCc1ccc(-c2ccc3ncnc(Nc4ccc(OCc5cccc(F)c5)c(Cl)c4)c3c2)o1 [lapatinib] (first compound 0.1 µM, partner dose 0.8 µM) | 65.7 | 152 | 328 | 89.3 | 157 | 76.6 | 103 | 68.8 | 94.3 | 274 | 100 | 160 | 59.6 | 93.5 | 44.2 | 44.8 | 107 | 154 | 121
O=C(O)[C@@H]1[O][Sb](=[O])([O][Sb]2(=[O])[O][C@H]([C@H](O)CO)[C@H](O)[C@H](C(=O)O)[O]2)[O][C@H]([C@H](O)CO)[C@@H]1O (some centres not stated) [stibogluconate] + Clc1ccc(Nc2nnc(Cc3ccncc3)c3ccccc23)cc1 [vatalanib] (first compound 2 µM, partner dose 2 µM) | 76.5 | 49.4 | 134 | 32.9 | 148 | 100 | 90 | 298 | 109 | 65 | 78.6 | 117 | 209 | 47.4 | 91.8 | 127 | 133 | 165 | 54.9
